Reference: PubChem BioAssay AID1259405 (NCATS, 2018)
Screen: 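Mouse-designed siRNAs used to find CHO productivity engineering targets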 (primary screen). System: Chinese hamster CHO-K1 ovary cells with stable secreted eGFP expression. Reagent: single siRNA against mouse genes, 0.8 pmol siRNA per well (2 µl of 400 nM stock). Timing: 3 days. Measurement: 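Percent of the per-plate non-targeting control median for intracellular GFP per well by laser scanning cytometry and for cell viability by ATP luminescence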. Reading the numbers: GFP, % of control: higher = more GFP per well, higher productivity; viability (ATP), % of control: higher = more viable cells (more ATP). Rule for the call: 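a knock-down is called active if GFP reaches 120% or more of non-targeting control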.
In all, the deposit lists about 50,000 reagents; below is a random part of them. About 4,000 of them (8%) were called active. 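Mouse siRNA library applied to hamster cells; one well for each siRNA.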 Entries without a mark were called inactive. The numbers tell different reagents against one gene apart. No sequences are given here.

Against Cct2 (chaperonin containing TCP1 subunit 2) #1, the values are GFP, % of control 78.5; viability (ATP), % of control 108.
With knock-down of Cct2 (chaperonin containing TCP1 subunit 2) #2, the screen gave GFP, % of control 76.7; viability (ATP), % of control 94.5.
Cct2 (chaperonin containing TCP1 subunit 2) #3 gave GFP, % of control 74.4; viability (ATP), % of control 137.
Against Epb42 (erythrocyte membrane protein band 4.2) #1, the values are GFP, % of control 71.8; viability (ATP), % of control 116.
For Epb42 (erythrocyte membrane protein band 4.2) #2 the deposit lists GFP, % of control 89.5; viability (ATP), % of control 177.
After knock-down of Epb42 (erythrocyte membrane protein band 4.2) #3, the record shows GFP, % of control 97.5; viability (ATP), % of control 110.
B3gat3 (beta-1,3-glucuronyltransferase 3) #1 gave GFP, % of control 77.3; viability (ATP), % of control 78.2.
For B3gat3 (beta-1,3-glucuronyltransferase 3) #2 the deposit lists GFP, % of control 89.8; viability (ATP), % of control 107.
Against B3gat3 (beta-1,3-glucuronyltransferase 3) #3 the deposit lists GFP, % of control 90.9; viability (ATP), % of control 96.5.
Against C1ql2 (complement component 1, q subcomponent-like 2) #1, the entry reads GFP, % of control 83.4; viability (ATP), % of control 58.1.
Silencing of C1ql2 (complement component 1, q subcomponent-like 2) #2 resulted in: GFP, % of control 75; viability (ATP), % of control 84.2.
After knock-down of C1ql2 (complement component 1, q subcomponent-like 2) #3, the record shows GFP, % of control 47; viability (ATP), % of control 58.8.
5031410I06Rik (RIKEN cDNA 5031410I06 gene) #1 gave GFP, % of control 70; viability (ATP), % of control 77.4.
5031410I06Rik (RIKEN cDNA 5031410I06 gene) #2 scored GFP, % of control 71.9; viability (ATP), % of control 62.5.
After knock-down of 5031410I06Rik (RIKEN cDNA 5031410I06 gene) #3 the results were GFP, % of control 144 (active); viability (ATP), % of control 100.
For Fmod (fibromodulin) #1 the deposit lists GFP, % of control 125 (active); viability (ATP), % of control 116.
After knock-down of Fmod (fibromodulin) #2 the results were GFP, % of control 62.7; viability (ATP), % of control 60.7.
For Fmod (fibromodulin) #3, the values are GFP, % of control 107; viability (ATP), % of control 65.1.
For Gga2 #1 the deposit lists GFP, % of control 88.7; viability (ATP), % of control 61.5.
For Gga2 #2, the entry reads GFP, % of control 96.5; viability (ATP), % of control 83.
Silencing of Gga2 #3 gave: GFP, % of control 96.1; viability (ATP), % of control 72.6.

Records above marked active, once more:
5031410I06Rik (RIKEN cDNA 5031410I06 gene) #3 | GFP, % of control: 144 (active); viability (ATP), % of control: 100
Fmod (fibromodulin) #1 | GFP, % of control: 125 (active); viability (ATP), % of control: 116

The list goes on:
Bst2 (bone marrow stromal cell antigen 2) #1 scored GFP, % of control 70.1; viability (ATP), % of control 120.
Against Bst2 (bone marrow stromal cell antigen 2) #2 the deposit lists GFP, % of control 82.3; viability (ATP), % of control 84.6.
Bst2 (bone marrow stromal cell antigen 2) #3 gave GFP, % of control 163 (active); viability (ATP), % of control 148.
Silencing of Or2w4 (olfactory receptor family 2 subfamily W member 4) #1 came out at: GFP, % of control 69.6; viability (ATP), % of control 52.6.
Or2w4 (olfactory receptor family 2 subfamily W member 4) #2 showed GFP, % of control 79.2; viability (ATP), % of control 88.
After knock-down of Or2w4 (olfactory receptor family 2 subfamily W member 4) #3 the results were GFP, % of control 39.5; viability (ATP), % of control 89.6.
After knock-down of Gbe1 (1,4-alpha-glucan branching enzyme 1) #1, the screen gave GFP, % of control 129 (active); viability (ATP), % of control 62.3.
Gbe1 (1,4-alpha-glucan branching enzyme 1) #2 showed GFP, % of control 92.4; viability (ATP), % of control 70.6.
Gbe1 (1,4-alpha-glucan branching enzyme 1) #3 scored GFP, % of control 109; viability (ATP), % of control 99.
Knock-down of Mvb12a (multivesicular body subunit 12A) #1 gave: GFP, % of control 108; viability (ATP), % of control 136.
Silencing of Mvb12a (multivesicular body subunit 12A) #2 gave: GFP, % of control 58.3; viability (ATP), % of control 74.1.
Silencing of Mvb12a (multivesicular body subunit 12A) #3 gave: GFP, % of control 63.5; viability (ATP), % of control 43.5.
With knock-down of Aplf (aprataxin and PNKP like factor) #1 the results were GFP, % of control 124 (active); viability (ATP), % of control 50.6.
Knock-down of Aplf (aprataxin and PNKP like factor) #2 resulted in: GFP, % of control 81.8; viability (ATP), % of control 100.
Knock-down of Aplf (aprataxin and PNKP like factor) #3 gave: GFP, % of control 71.8; viability (ATP), % of control 80.6.
Pxt1 (peroxisomal, testis specific 1) #1 scored GFP, % of control 84.8; viability (ATP), % of control 75.4.
After knock-down of Pxt1 (peroxisomal, testis specific 1) #2 the results were GFP, % of control 30.2; viability (ATP), % of control 39.8.
Against Pxt1 (peroxisomal, testis specific 1) #3 the deposit lists GFP, % of control 66.2; viability (ATP), % of control 88.8.
After knock-down of Sass6 (SAS-6 centriolar assembly protein) #1, the screen gave GFP, % of control 58.2; viability (ATP), % of control 37.5.
Sass6 (SAS-6 centriolar assembly protein) #2 scored GFP, % of control 89.1; viability (ATP), % of control 80.3.
Against Sass6 (SAS-6 centriolar assembly protein) #3 the deposit lists GFP, % of control 73; viability (ATP), % of control 76.4.
